No constants are given. Whether binding was seen depends on the method and setting. Some results given as binding are weak or reduced against the parent protein; the word gives no strength. Values belong to the molecule of their own block, whether it stands above or below them.
Columns and labels:
[1] = molecular target: T1, Human S100B protein (human) (UniProt P04271); experiment: SPR; S100B immobilised by amine coupling with IFN-β bound; regeneration of the chip by passage of 5 mM EDTA pH 8.0 for 200 s; both purified
T1 sequence: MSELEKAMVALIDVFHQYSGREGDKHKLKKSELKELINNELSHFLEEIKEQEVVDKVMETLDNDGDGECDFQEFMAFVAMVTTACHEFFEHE

[2] = molecular target: T2, Human interferon beta-1a (IFN-β, Rebif) (human), P01574; experiment: cross-linking; 5 µM IFN-β with 10 µM Ca2+-depleted S100B (1:2), and 10 µM apo-S100B alone; 40 mM EDAC, 10 mM sulfo-NHS, 25 °C, 1.5 h; 10 mM HEPES, 150 mM NaCl, pH 7.4, without CaCl2 and without chelator; authors say the samples could be contaminated by Ca2+; both purified; conditions: remark: other sources report otherwise
T2 chain: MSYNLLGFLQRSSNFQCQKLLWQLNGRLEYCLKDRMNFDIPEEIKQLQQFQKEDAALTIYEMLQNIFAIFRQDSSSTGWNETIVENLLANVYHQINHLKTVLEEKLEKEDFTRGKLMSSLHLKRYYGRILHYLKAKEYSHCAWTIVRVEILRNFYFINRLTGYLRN

[3] = molecular target: T2, Human interferon beta-1a (IFN-β, Rebif) …; experiment: cross-linking; 5 µM IFN-β with S100B at S100B to IFN-β molar ratios 0.5:1, 1:1, 2:1, and 10 µM S100B alone; 40 mM EDAC, 10 mM sulfo-NHS, 25 °C, 1.5 h; 10 mM HEPES, 150 mM NaCl, pH 7.4, 1 mM CaCl2 (Ca2+-bound S100B); SDS-PAGE, silver staining; both purified; conditions: remark: other sources report otherwise
[4] = molecular target: Human interferon beta-1a (IFN-β, Rebif) (human) (UniProt P01574); experiment: other fluorescence titration; tryptophan fluorescence of 0.5 µM IFN-β (excitation 295 nm) titrated by S100B; 25 °C; 10 mM HEPES-NaOH, 150 mM NaCl, 5 mM EDTA, pH 7.4; both purified

binding [1]: no binding (condition: with 5 mM EDTA)
Molecule: Human interferon beta-1a (IFN-β, Rebif) (from UniProt P01574 22-187) (ligand)

binding [2]: binds
binding [3]: binds
B1: Human S100B protein, P04271 1-92 (natural protein)
chain: T1 sequence

binding [4]: no binding (condition: with 5 mM EDTA)
B2: Human S100B protein (natural protein)
chain: T1 sequence
notes: human S100B, UniProt P04271; crystal structure of Ca2+-loaded human S100B dimer PDB 5D7F chains A and B; The authors take the S100B that was amine-coupled to the SPR chip to be partly converted to the monomer; also called apo-S100B; Ca^2+-loaded S100B

— publication PMC8877046, “Interferon-β Activity Is Affected by S100B Protein” (International Journal of Molecular Sciences, 2013)
